{
  "source": "PubChem BioAssay AID256",
  "about": "(DTP/NCI, 2004)",
  "system": "CD2F1 mice, L1210 leukemia ip, survival T/C",
  "test": "NCI In Vivo Anticancer Drug Screen. Data for tumor model L1210 Leukemia (intraperitoneal) in CD2F1 (CDF1) mice",
  "conditions": "T/C endpoint: mean survival time, higher T/C = longer survival",
  "method_in_brief": "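Transplantable tumor in mice; compound-treated vs vehicle-treated groups. Read-out = treated/control ratio of the measured endpoint.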",
  "key": {"[1]": {"conditions": "dose: 12.5 mg/kg/injection, schedule: Q04DX003 (ip), vehicle: water"}, "[2]": {"conditions": "dose: 25.0 mg/kg/injection, schedule: Q04DX003 (ip), vehicle: water"}, "[3]": {"conditions": "dose: 400.0 mg/kg/injection, schedule: Q01DX001 (ip), vehicle: saline with Tween-80"}, "[4]": {"conditions": "dose: 200.0 mg/kg/injection, schedule: Q04DX003 (ip), vehicle: saline with Tween-80"}, "[5]": {"conditions": "dose: 400.0 mg/kg/injection, schedule: Q04DX003 (ip), vehicle: saline with Tween-80"}, "[6]": {"conditions": "dose: 50.0 mg/kg/injection, schedule: Q01DX009 (ip), vehicle: saline with Tween-80"}},
  "note": "The list is a part of this screen's results and no random one: it is rich in T/C values a quarter to a half above the control, in often repeated tests (any T/C) and in doses without a T/C. Other doses and runs of a compound stand elsewhere. T/C gives the treated animals as a percentage of the vehicle group. Some entries give survivors of the animals treated and no T/C: the source holds a T/C of zero for them, seemingly a mark for toxic or unscored doses. Some doses without a T/C left all or most animals alive at the check, yet need not have been tolerated: survival well below the control is almost never listed, so the zero probably covers shortened survival too. Survivors were counted at the toxicity check, usually on the fifth day, unless a day is given; later deaths do not show. Schedule codes are those of the source, read here as Q, the interval in days (D) or hours (H), X, the number of doses. Where survival is the endpoint, this PubChem deposit counts one and a half times the control or more as active, and values a quarter to a half above the control carry no call in these data; other NCI protocols may use other cut-offs. Some entries hold several experiments; the results are listed from low to high.",
  "data": [
    {"compound": "CC1CC[N-]CC1.CC1CC[N-]CC1.CC1CC[N-]CC1.CC1CC[N-]CC1.CS(C)=O.CS(C)=O.[Cl-].[Cl-].[Cl-].[Cl-].[Pt+4].[Rh+3]", "values": [
      {"measurement": "survivor count", "setting": "dose: 6.25 mg/kg/injection, schedule: Q04DX003 (ip), vehicle: Klucel (hydroxypropylcellulose) (HPC)", "value": "5 of 6"},
      {"measurement": "survivor count", "setting": "[1]", "value": "0 of 6"},
      {"measurement": "survivor count", "setting": "[2]", "value": "0 of 6"},
      {"measurement": "survivor count", "setting": "dose: 50.0 mg/kg/injection, schedule: Q04DX003 (ip), vehicle: Klucel (hydroxypropylcellulose) (HPC)", "value": "0 of 6"},
      {"measurement": "survivor count", "setting": "dose: 50.0 mg/kg/injection, schedule: Q04DX003 (ip), vehicle: water", "value": "0 of 6"},
      {"measurement": "survivor count", "setting": "dose: 100.0 mg/kg/injection, schedule: Q04DX003 (ip), vehicle: Klucel (hydroxypropylcellulose) (HPC)", "value": "0 of 6"},
      {"measurement": "survivor count", "setting": "dose: 200.0 mg/kg/injection, schedule: Q04DX003 (ip), vehicle: Klucel (hydroxypropylcellulose) (HPC)", "value": "0 of 6"},
      {"measurement": "survivor count", "setting": "dose: 400.0 mg/kg/injection, schedule: Q04DX003 (ip), vehicle: Klucel (hydroxypropylcellulose) (HPC)", "value": "0 of 6"}
    ]},
    {"compound": "O=[N+]([O-])c1cc(Cl)c(Cl)cc1[N+](=O)[O-]", "values": [
      {"measurement": "survivor count", "setting": "[3]", "value": "0 of 3"}
    ]},
    {"compound": "Cc1ccccc1-[n+]1nc(-c2ccccc2)nn1-c1ccccc1", "values": [
      {"measurement": "survivor count", "setting": "dose: 2.5 mg/kg/injection, schedule: Q01DX009 (ip), vehicle: saline sonified", "value": "2 of 6"},
      {"measurement": "survivor count", "setting": "dose: 5.0 mg/kg/injection, schedule: Q01DX009 (ip), vehicle: saline sonified", "value": "2 of 6"},
      {"measurement": "survivor count", "setting": "dose: 10.0 mg/kg/injection, schedule: Q04DX003 (ip), vehicle: saline with Tween-80", "value": "0 of 6"},
      {"measurement": "survivor count", "setting": "dose: 20.0 mg/kg/injection, schedule: Q04DX003 (ip), vehicle: saline with Tween-80", "value": "0 of 6"},
      {"measurement": "survivor count", "setting": "dose: 100.0 mg/kg/injection, schedule: Q04DX003 (ip), vehicle: saline with Tween-80", "value": "0 of 6"},
      {"measurement": "survivor count", "setting": "[4]", "value": "0 of 6"},
      {"measurement": "survivor count", "setting": "[5]", "value": "0 of 6"}
    ]},
    {"compound": "CN(C)C1=NC1(C)C.CN(C)C1=NC1(C)C.[Cl][Pd][Cl]", "values": [
      {"measurement": "survivor count", "setting": "dose: 200.0 mg/kg/injection, schedule: Q04DX003 (ip), vehicle: distilled water + Tween-80", "value": "1 of 5"}
    ]},
    {"compound": "O=C(C[n+]1ccc2ccccc2c1)c1ccc2ccccc2c1", "values": [
      {"measurement": "survivor count", "setting": "dose: 50.0 mg/kg/injection, schedule: Q04DX003 (ip), vehicle: saline with Tween-80", "value": "6 of 6"}
    ]},
    {"compound": "C[n+]1ccc(Nc2ccc(NC(=O)c3ccc(Nc4cc[n+](C)c5ccc([N+](=O)[O-])cc45)cc3[N+](=O)[O-])cc2)cc1", "values": [
      {"measurement": "T/C", "setting": "dose: 118.0 mg/kg/injection, schedule: Q04DX003 (ip), vehicle: saline with Tween-80", "value": "131 % of control"},
      {"measurement": "T/C", "setting": "dose: 178.0 mg/kg/injection, schedule: Q04DX003 (ip), vehicle: saline with Tween-80", "value": "148 % of control"},
      {"measurement": "T/C", "setting": "[4]", "value": "131 % of control"},
      {"measurement": "T/C", "setting": "[5]", "value": "135 and 140 % of control"},
      {"measurement": "survivor count", "setting": "[5]", "value": "5 of 6"},
      {"measurement": "survivor count", "setting": "dose: 600.0 mg/kg/injection, schedule: Q04DX003 (ip), vehicle: saline with Tween-80", "value": "2 of 6"}
    ]},
    {"compound": "CC1=NN(c2ccccc2)C(=O)/C1=C/N(C)C", "values": [
      {"measurement": "survivor count", "setting": "dose: 25.0 mg/kg/injection, schedule: Q04DX003 (ip), vehicle: saline with Tween-80", "value": "1 of 6"}
    ]},
    {"compound": "O=C(CCCl)Oc1c(Cl)c(Cl)c(Cl)c(Cl)c1Cl", "values": [
      {"measurement": "survivor count", "setting": "dose: 200.0 mg/kg/injection, schedule: Q01DX009 (ip), vehicle: saline with Tween-80", "value": "5 of 6"},
      {"measurement": "survivor count", "setting": "dose: 400.0 mg/kg/injection, schedule: Q01DX009 (ip), vehicle: saline with Tween-80", "value": "3 of 6"}
    ]},
    {"compound": "CCCCCCCCCCCCOC(=O)C[n+]1cccc(C(=O)Nc2ccccc2)c1", "values": [
      {"measurement": "survivor count", "setting": "[6]", "value": "3 of 6"},
      {"measurement": "survivor count", "setting": "dose: 100.0 mg/kg/injection, schedule: Q01DX009 (ip), vehicle: saline with Tween-80", "value": "3 of 6"},
      {"measurement": "survivor count", "setting": "[4]", "value": "1 of 6"},
      {"measurement": "survivor count", "setting": "[5]", "value": "0 of 6"}
    ]},
    {"compound": "Nc1nc(-c2ccccc2)c(CCCNc2ccc(C(=O)NC(CCC(=O)O)C(=O)O)cc2)c(=O)[nH]1", "note": "(stereo not given)", "values": [
      {"measurement": "survivor count", "setting": "dose: 400.0 mg/kg/injection, schedule: Q01DX009 (ip), vehicle: saline", "value": "6 of 6"}
    ]},
    {"compound": "Cc1cccc(NC(=O)C2CCC(C)(C(=O)O)C2(C)C)c1", "note": "(stereo not given)", "values": [
      {"measurement": "survivor count", "setting": "[5]", "value": "1 of 6"}
    ]},
    {"compound": "CCN(C(=O)CCl)c1ccccc1C", "values": [
      {"measurement": "survivor count", "setting": "[5]", "value": "0 of 6"}
    ]},
    {"compound": "O=C(O)C1CC1.[Ag]", "values": [
      {"measurement": "survivor count", "setting": "dose: 400.0 mg/kg/injection, schedule: Q04DX003 (ip), vehicle: saline", "value": "0 of 6"}
    ]},
    {"compound": "O=C(Cl)C12CC3CC(CC(C3)C1)C2", "values": [
      {"measurement": "survivor count", "setting": "dose: 200.0 mg/kg/injection, schedule: Q01DX009 (ip), vehicle: other", "value": "4 of 5"}
    ]},
    {"compound": "NNC(=O)Nc1ccccc1", "values": [
      {"measurement": "survivor count", "setting": "dose: 100.0 mg/kg/injection, schedule: Q01DX001 (ip), vehicle: saline with Tween-80", "value": "0 of 3"},
      {"measurement": "survivor count", "setting": "dose: 200.0 mg/kg/injection, schedule: Q01DX001 (ip), vehicle: saline with Tween-80", "value": "0 of 3"},
      {"measurement": "survivor count", "setting": "[3]", "value": "0 of 3"}
    ]},
    {"compound": "CC(C)(C)OC(=O)NC(Cc1ccc(OCc2ccccc2)cc1)C(=O)O", "note": "(stereo not given)", "values": [
      {"measurement": "survivor count", "setting": "[5]", "value": "4 of 6"}
    ]},
    {"compound": "C=CC[n+]1cc2c3ccccc3c(N)cc2c2ccccc21", "values": [
      {"measurement": "survivor count", "setting": "[1]", "value": "6 of 6"},
      {"measurement": "survivor count", "setting": "[2]", "value": "0 of 6"}
    ]},
    {"compound": "COC1CC2C[CH]([Hg][Cl])C1C2", "note": "(stereo not given)", "values": [
      {"measurement": "survivor count", "setting": "dose: 12.5 mg/kg/injection, schedule: Q01DX009 (ip), vehicle: saline with Tween-80", "value": "0 of 3"},
      {"measurement": "survivor count", "setting": "dose: 25.0 mg/kg/injection, schedule: Q01DX009 (ip), vehicle: saline with Tween-80", "value": "0 of 3"},
      {"measurement": "survivor count", "setting": "[6]", "value": "0 of 3"}
    ]}
  ]
}
